This note sets out measurements from paper PMC8782983.

By UniProt entry, the sequences of proteins in these tests, tags left out.
UniProt Q9GZV4: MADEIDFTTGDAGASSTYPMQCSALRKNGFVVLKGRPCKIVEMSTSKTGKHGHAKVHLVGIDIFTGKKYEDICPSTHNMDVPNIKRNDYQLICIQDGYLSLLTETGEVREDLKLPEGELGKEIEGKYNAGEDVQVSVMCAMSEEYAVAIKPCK

For assay [1], the target named is T1, HERC3, endogenous (human (endogenous in HCT116)) (UniProt Q15034).
T1 sequence: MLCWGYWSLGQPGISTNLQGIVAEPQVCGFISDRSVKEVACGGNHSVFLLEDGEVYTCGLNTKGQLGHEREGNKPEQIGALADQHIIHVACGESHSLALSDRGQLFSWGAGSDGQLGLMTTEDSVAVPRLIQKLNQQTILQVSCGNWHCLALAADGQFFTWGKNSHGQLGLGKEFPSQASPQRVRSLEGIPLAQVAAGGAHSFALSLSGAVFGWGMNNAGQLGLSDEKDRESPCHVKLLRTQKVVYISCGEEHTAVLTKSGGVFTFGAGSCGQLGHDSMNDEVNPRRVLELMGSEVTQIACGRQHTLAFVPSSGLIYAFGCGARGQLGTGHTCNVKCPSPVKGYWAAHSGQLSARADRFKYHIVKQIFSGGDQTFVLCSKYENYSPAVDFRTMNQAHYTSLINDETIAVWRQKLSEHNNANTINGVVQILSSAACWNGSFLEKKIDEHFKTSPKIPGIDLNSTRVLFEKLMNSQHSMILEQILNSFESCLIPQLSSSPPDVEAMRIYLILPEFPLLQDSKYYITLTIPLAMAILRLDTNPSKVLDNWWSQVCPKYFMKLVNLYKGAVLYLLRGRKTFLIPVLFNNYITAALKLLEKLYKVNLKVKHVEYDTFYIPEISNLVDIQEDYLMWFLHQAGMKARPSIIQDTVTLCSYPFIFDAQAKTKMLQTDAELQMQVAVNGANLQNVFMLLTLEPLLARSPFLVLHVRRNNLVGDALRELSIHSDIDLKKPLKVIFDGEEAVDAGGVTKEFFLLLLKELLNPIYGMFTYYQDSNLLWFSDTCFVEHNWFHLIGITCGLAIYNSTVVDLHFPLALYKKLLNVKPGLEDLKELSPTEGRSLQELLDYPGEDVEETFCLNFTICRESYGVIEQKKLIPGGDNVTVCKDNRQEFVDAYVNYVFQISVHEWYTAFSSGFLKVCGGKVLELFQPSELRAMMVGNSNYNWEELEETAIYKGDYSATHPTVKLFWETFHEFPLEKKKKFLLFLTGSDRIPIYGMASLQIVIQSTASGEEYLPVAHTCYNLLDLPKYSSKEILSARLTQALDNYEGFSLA
The assay can be described thus: co-IP; endogenous proteins; lysates of HCT116 cells, co-IP with anti-HERC3 or anti-EIF5A2 and control IgG.

A further assay addresses T2, HERC3-Myc, wild type (UniProt Q15034).
T2 sequence: T1 sequence
The assay can be described thus: co-IP; HCT116 cells transfected with the indicated plasmids; co-IP buffer (50 mM Tris-HCl, 5 mM EDTA, 150 mM NaCl, 1% NP-40, pH 7.6); antibodies and Protein G agarose beads or affinity gels, 4 °C overnight, with or without RNase (50 μg/ml).

The next assay has as its target T3, GST-HERC3 (UniProt Q15034).
T3 sequence: T1 sequence
Put plainly: pull-down; GST pull-down; purified recombinant proteins (20 μg) with glutathione sepharose 4B in 500 μl pulldown buffer (20 mM Tris-Cl, 5 mM MgCl2, 100 mM NaCl, 1 mM DTT, 1 mM EDTA, 0.5% NP-40, 10 μg/ml BSA, pH 7.5); five washes, western blotting; both purified.

Results are given in words; binding and its absence hold for the method and conditions named. For part of these data: Binding seen in cells or lysates may run through a third protein. Some results given as binding are weak or reduced against the parent protein; the word gives no strength. For part of these data: Where a sequence is shown, tags or fusion partners need not be part of it.

Turning to “EIF5A2, endogenous (from UniProt Q9GZV4 1-153)”, the binding entry in assay [1] is reported as “binds”.
In the case of EIF5A2-Flag (from UniProt Q9GZV4 1-153), the binding result with HERC3-Myc, wild type was “binds”.
On to “His-tagged EIF5A2, recombinant (from UniProt Q9GZV4 1-153)”, for which the binding result with GST-HERC3 is on record as “binds”.
